PMC7969954, “Pol α-primase dependent nuclear localization of the mammalian CST complex” (Communications Biology, 2021)
Results are given in words; binding and its absence hold for the method and conditions named. For some assays here: In cells and extracts the contact can be indirect. Some binding calls cover weakened binding; strength is not graded here.

By UniProt entry, the sequences of proteins in these tests, tags left out.
UniProt P04406: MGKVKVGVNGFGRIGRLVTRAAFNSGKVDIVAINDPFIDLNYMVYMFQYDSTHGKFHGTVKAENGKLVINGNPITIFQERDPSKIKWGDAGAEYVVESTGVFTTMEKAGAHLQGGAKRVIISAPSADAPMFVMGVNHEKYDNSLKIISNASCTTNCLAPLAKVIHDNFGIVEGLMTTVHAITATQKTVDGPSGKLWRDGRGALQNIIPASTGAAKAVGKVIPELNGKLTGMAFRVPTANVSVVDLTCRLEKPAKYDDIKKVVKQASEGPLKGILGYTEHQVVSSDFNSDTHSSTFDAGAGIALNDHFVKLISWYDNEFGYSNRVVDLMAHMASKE
UniProt P09884: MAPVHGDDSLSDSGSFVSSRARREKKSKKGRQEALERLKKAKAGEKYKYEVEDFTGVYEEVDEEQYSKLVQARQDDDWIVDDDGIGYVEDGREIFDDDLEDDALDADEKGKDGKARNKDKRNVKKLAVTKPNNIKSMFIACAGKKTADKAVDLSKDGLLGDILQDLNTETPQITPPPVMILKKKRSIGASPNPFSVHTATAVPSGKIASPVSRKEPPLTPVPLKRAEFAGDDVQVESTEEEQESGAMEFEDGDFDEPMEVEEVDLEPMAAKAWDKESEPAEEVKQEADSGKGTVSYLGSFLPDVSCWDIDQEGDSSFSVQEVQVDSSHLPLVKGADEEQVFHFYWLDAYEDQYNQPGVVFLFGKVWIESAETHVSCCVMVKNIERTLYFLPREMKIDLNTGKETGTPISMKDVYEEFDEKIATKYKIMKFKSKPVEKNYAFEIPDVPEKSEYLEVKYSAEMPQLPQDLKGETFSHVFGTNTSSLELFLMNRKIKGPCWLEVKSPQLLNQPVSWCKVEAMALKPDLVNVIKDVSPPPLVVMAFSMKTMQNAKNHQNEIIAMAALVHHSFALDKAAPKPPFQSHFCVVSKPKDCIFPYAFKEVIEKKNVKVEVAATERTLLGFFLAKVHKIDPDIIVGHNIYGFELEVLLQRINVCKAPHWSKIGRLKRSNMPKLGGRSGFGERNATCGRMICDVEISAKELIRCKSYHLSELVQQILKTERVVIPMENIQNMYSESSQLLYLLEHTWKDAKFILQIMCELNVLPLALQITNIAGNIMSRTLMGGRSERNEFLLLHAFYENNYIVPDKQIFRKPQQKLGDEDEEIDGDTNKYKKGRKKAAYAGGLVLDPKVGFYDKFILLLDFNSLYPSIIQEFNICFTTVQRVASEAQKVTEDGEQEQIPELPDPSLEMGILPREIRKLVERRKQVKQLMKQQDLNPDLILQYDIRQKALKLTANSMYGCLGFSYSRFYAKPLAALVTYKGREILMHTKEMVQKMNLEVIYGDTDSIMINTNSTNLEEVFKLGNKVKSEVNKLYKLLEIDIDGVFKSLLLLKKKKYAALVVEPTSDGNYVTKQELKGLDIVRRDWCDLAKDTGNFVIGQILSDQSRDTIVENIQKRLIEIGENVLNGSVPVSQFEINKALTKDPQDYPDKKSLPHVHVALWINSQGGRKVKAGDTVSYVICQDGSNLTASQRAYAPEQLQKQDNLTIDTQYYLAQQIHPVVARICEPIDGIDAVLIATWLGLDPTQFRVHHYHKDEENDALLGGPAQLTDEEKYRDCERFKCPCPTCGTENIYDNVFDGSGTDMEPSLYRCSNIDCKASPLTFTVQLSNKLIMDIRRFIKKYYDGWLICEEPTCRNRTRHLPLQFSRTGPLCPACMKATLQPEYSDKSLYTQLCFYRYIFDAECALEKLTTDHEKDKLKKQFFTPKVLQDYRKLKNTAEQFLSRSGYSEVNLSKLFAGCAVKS

Experiments:
[1] = target: T1, mCherry-CTC1 (CRISPR Cas9 knock-in at the endogenous CTC1 gene) (human (endogenous in HEK293T)) (UniProt Q2NKJ3); assay: co-IP; magnetic RFP-Trap (mCherry-Trap) beads on lysates of 8 x 10^6 HEK293T cells expressing mCherry-CTC1; IPs blotted for endogenous proteins; mock co-IPs with WT HEK293T cells
T1 sequence: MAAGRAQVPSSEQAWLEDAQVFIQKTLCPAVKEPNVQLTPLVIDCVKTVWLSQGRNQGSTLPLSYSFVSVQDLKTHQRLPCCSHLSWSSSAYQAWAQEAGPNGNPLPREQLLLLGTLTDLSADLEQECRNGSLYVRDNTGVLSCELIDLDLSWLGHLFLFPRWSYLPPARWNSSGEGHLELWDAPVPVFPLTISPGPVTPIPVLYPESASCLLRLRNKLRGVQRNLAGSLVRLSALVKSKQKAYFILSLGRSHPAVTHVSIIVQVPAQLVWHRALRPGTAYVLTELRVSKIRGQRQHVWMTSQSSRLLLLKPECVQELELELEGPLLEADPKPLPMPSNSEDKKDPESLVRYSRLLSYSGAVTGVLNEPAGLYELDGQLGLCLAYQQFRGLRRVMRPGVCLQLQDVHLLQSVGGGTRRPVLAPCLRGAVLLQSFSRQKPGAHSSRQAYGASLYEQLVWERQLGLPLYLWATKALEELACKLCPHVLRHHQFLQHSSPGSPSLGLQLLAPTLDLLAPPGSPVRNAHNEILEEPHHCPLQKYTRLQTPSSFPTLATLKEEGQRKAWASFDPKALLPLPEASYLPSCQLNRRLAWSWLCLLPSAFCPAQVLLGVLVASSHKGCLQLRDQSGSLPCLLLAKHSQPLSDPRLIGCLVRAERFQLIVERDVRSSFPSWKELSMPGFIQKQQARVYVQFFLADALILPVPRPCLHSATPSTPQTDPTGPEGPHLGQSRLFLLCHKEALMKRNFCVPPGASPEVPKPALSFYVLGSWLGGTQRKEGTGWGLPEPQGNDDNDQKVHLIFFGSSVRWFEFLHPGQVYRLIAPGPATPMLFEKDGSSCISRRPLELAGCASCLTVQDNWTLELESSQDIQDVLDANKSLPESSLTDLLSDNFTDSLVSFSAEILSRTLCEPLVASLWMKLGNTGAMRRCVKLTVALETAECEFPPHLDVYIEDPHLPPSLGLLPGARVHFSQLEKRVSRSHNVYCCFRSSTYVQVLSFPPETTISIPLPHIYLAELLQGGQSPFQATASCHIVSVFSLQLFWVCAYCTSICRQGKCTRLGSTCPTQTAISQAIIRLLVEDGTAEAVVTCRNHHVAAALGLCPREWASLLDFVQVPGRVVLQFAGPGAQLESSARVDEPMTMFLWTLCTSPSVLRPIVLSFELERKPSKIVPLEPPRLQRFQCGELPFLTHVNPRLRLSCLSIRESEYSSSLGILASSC

[2] = target: T2, mCherry-CTC1 wild type (plasmid construct) (human) (UniProt Q2NKJ3); assay: as above
T2 sequence: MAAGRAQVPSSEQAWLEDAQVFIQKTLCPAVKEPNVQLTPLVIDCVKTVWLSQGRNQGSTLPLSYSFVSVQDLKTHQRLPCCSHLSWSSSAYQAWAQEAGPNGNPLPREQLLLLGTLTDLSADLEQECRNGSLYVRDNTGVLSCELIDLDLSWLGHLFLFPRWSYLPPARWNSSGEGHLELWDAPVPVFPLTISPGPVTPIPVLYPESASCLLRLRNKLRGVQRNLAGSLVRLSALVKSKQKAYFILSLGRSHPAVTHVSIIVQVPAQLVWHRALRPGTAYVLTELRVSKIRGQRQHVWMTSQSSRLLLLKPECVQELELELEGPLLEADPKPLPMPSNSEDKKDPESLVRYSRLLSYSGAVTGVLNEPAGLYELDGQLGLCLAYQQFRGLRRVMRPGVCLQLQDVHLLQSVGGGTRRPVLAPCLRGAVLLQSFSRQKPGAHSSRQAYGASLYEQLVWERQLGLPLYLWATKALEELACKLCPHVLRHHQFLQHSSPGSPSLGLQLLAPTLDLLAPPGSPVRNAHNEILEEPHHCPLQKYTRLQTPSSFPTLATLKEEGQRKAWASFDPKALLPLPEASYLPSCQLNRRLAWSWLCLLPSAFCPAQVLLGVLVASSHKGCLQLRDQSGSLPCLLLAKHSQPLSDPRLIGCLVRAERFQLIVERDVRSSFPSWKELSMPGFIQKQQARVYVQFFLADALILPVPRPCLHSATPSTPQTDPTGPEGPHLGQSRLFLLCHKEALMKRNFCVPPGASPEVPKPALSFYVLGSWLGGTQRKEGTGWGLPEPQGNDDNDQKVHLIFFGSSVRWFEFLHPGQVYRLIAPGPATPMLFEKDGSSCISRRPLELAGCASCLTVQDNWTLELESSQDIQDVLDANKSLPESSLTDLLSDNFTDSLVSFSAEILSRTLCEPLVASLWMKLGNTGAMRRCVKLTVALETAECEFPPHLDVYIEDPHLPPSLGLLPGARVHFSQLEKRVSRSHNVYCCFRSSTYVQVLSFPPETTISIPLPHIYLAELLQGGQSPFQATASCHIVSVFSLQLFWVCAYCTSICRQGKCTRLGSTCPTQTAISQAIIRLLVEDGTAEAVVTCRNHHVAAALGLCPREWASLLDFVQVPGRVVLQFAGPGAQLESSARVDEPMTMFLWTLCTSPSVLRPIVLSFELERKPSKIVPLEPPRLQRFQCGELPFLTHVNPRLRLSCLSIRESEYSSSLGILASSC

[3] = target: T3, mCherry-CTC1 K240A (human) (UniProt Q2NKJ3); assay: as above
T3 sequence: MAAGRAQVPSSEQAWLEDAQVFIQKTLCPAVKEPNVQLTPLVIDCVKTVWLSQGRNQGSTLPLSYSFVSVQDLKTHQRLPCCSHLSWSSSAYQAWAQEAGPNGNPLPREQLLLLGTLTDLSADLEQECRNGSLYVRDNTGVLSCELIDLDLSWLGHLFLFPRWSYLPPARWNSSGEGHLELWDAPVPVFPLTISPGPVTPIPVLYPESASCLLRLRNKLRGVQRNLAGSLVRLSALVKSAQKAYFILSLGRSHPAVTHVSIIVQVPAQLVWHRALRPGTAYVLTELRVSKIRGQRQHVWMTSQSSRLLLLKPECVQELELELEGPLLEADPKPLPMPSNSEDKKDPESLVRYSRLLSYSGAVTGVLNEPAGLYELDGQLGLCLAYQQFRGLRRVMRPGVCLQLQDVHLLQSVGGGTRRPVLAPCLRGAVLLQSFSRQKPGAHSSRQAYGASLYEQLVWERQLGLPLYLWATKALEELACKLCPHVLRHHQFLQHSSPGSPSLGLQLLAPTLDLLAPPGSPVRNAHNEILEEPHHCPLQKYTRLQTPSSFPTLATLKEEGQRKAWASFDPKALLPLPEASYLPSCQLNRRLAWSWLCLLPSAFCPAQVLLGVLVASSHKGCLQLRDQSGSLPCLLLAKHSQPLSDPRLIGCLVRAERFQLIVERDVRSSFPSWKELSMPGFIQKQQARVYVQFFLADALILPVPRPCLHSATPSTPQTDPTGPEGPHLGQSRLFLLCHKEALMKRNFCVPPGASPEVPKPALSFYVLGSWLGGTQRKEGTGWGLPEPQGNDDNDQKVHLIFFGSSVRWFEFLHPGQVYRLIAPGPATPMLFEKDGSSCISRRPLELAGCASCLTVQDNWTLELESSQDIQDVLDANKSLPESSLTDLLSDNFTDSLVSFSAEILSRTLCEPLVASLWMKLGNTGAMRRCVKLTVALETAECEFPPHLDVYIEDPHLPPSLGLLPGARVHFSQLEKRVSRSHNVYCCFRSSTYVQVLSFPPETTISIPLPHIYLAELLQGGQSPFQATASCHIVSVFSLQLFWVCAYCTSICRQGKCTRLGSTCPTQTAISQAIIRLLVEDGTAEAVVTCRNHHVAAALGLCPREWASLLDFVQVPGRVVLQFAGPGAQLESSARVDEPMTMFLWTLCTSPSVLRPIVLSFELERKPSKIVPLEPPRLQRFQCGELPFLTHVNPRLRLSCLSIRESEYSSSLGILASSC

[4] = target: T4, mCherry-CTC1 K242A (human) (UniProt Q2NKJ3); assay: as above
T4 sequence: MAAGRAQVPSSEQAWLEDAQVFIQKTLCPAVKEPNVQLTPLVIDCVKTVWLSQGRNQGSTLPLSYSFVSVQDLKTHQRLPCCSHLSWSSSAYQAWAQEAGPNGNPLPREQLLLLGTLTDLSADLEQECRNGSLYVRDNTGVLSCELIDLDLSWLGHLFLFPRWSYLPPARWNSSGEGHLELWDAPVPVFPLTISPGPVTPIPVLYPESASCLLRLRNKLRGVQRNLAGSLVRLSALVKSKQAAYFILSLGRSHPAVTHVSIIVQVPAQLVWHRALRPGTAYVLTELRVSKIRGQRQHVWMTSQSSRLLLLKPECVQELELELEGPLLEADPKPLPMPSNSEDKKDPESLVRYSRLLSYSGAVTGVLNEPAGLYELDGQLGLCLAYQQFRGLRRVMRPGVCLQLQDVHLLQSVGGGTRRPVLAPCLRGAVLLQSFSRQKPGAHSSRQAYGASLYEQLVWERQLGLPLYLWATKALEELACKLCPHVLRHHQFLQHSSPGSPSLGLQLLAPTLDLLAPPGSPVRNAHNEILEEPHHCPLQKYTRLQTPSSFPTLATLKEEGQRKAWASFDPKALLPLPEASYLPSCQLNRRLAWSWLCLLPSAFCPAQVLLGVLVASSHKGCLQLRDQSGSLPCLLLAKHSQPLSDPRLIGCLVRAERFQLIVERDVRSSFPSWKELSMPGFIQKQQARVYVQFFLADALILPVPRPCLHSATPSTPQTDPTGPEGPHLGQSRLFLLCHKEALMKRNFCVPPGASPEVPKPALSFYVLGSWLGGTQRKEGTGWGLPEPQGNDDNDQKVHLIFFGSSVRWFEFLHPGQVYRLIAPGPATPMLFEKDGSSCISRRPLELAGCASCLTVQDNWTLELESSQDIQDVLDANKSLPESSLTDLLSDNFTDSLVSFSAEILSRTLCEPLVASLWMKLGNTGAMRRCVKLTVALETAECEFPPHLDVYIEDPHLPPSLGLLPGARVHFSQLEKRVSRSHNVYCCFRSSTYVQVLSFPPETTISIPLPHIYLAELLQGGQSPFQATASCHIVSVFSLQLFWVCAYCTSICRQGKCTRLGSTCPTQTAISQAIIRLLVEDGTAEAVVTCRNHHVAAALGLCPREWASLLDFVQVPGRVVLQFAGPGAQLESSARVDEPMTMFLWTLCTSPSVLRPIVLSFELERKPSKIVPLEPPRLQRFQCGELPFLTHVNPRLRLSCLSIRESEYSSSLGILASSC

[5] = target: T1, mCherry-CTC1 (CRISPR Cas9 knock-in at the endogenous CTC1 gene) (human (endogenous in HEK293T)); assay: co-IP; RFP-beads incubated with nuclear and cytoplasmic extracts of fractionated HEK293T cells; blotted for PolA1
[6] = target: T5, full length STN1 (recombinant) (human) (UniProt Q9H668); assay: co-purification; STN1 and TEN1 E. coli cells lysed together by sonication and purified as a complex over Ni-NTA, amylose, HS and HQ columns
T5 sequence: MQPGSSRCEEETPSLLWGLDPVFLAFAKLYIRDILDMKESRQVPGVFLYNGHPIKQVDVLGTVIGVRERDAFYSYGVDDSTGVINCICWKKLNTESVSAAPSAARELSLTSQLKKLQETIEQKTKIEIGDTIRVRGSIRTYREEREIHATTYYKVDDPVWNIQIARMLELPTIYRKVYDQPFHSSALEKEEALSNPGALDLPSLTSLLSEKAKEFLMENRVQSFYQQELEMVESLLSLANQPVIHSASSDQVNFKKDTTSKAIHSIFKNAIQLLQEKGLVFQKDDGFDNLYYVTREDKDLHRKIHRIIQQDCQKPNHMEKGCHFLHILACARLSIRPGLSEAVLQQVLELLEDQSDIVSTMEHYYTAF

With “GAPDH, endogenous (from UniProt P04406 1-335)” the binding [1] was “no binding”.

In the case of “PolA1 (catalytic subunit of DNA polymerase alpha primase), endogenous (from UniProt P09884 1-1462)”, the binding [1] is reported as “binds”, the binding [2] is reported as “binds” and the binding [3] is reported as “binds”. For the same molecule, the binding [4] was “binds” and the binding [5] was “binds”.

B1: STN1, endogenous (protein, UniProt Q9H668 1-368)
chain: MQPGSSRCEEETPSLLWGLDPVFLAFAKLYIRDILDMKESRQVPGVFLYNGHPIKQVDVLGTVIGVRERDAFYSYGVDDSTGVINCICWKKLNTESVSAAPSAARELSLTSQLKKLQETIEQKTKIEIGDTIRVRGSIRTYREEREIHATTYYKVDDPVWNIQIARMLELPTIYRKVYDQPFHSSALEKEEALSNPGALDLPSLTSLLSEKAKEFLMENRVQSFYQQELEMVESLLSLANQPVIHSASSDQVNFKKDTTSKAIHSIFKNAIQLLQEKGLVFQKDDGFDNLYYVTREDKDLHRKIHRIIQQDCQKPNHMEKGCHFLHILACARLSIRPGLSEAVLQQVLELLEDQSDIVSTMEHYYTAF
For B1, the binding [1] was “binds”.

B2: full length TEN1 (recombinant) (protein, UniProt Q86WV5 1-123)
chain: MMLPKPGTYYLPWEVSAGQVPDGSTLRTFGRLCLYDMIQSRVTLMAQHGSDQHQVLVCTKLVEPFHAQVGSLYIVLGELQHQQDRGSVVKARVLTCVEGMNLPLLEQAIREQRLYKQERGGSQ
In the case of B2, the binding [6] is reported as “binds”.
